From article doi:10.1101/2023.10.16.562477
Read-outs that look alike come from different tables or passages of the source. These are yes or no findings as the source states them, for the method shown. For some assays here: In cells and extracts the contact can be indirect. Some binding calls cover weakened binding; strength is not graded here. For some assays here: Tags and fused reporters may be left off the sequences shown.

By UniProt entry, the sequences of proteins in these tests, tags left out. Where a name states a change or a piece, a line headed by the entry shows the natural chain unless it says otherwise.
UniProt P13569, whole entry, looked up, stated change not applied: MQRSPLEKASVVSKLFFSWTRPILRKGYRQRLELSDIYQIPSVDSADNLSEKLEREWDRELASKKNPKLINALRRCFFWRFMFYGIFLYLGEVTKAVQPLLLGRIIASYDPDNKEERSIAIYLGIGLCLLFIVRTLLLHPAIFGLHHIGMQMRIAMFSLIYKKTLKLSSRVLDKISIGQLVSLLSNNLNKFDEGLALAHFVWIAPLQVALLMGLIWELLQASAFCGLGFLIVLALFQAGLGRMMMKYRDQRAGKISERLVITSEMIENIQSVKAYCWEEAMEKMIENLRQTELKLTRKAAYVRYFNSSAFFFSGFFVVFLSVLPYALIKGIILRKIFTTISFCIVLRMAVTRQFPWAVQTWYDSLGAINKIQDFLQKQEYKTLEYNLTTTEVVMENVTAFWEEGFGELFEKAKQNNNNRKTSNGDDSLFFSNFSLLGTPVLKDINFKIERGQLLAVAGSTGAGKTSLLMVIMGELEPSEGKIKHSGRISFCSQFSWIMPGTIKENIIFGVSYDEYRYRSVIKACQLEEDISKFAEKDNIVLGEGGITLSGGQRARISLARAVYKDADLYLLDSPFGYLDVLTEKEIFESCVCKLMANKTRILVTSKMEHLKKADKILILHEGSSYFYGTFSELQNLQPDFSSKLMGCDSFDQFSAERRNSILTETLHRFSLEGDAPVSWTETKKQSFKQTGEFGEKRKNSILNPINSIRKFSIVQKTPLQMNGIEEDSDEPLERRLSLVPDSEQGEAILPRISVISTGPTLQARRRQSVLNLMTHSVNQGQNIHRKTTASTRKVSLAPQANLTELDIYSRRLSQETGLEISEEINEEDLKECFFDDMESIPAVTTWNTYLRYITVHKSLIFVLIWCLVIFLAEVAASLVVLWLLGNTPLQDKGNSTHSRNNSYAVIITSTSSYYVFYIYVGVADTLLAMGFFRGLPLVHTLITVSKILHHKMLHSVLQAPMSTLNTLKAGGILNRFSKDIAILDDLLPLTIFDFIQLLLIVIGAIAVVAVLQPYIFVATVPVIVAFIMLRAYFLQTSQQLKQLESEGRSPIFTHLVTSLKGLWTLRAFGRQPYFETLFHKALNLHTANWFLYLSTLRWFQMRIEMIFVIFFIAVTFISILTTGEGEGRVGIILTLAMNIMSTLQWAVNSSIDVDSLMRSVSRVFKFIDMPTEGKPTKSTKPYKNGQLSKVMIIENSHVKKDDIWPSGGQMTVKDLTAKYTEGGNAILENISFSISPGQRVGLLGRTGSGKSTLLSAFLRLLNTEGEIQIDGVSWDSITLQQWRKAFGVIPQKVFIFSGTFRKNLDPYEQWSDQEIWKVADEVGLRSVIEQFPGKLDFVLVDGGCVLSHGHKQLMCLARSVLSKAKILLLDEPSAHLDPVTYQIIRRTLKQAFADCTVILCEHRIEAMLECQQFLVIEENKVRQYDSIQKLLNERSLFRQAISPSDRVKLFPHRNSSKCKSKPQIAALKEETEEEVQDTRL
UniProt Q9UHD9, whole entry: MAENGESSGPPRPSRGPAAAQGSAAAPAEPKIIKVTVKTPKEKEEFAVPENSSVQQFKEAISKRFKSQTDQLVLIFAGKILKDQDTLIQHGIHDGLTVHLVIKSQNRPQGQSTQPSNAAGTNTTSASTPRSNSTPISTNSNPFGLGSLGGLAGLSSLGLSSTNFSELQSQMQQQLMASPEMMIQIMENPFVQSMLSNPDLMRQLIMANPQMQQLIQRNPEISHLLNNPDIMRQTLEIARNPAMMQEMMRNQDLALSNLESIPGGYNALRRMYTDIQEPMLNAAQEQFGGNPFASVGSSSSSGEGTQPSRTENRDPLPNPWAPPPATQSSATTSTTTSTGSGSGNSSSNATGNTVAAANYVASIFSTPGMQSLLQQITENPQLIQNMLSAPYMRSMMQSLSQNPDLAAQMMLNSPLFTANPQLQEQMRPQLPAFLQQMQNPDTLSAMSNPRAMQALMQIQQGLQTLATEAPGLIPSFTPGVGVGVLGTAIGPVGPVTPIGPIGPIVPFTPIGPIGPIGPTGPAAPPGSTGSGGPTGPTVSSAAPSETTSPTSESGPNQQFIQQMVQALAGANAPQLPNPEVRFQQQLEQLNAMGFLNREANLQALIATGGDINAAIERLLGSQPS

Legend:
[1] = molecular target: HBH-ΔF508-CFTR-3HA (293MSR cells) (UniProt P13569); assay: ELISA
[2] = molecular target: HBH-ΔF508-CFTR-3HA (BHK cells) (UniProt P13569); assay: pull-down
[3] = molecular target: HBH-ΔF508-CFTR-3HA (293MSR cells) (UniProt P13569); assay: cross-linking + pull-down
[4] = molecular target: HBH-ΔF508-CFTR-3HA (293MSR cells) (UniProt P13569); assay: cross-linking + pull-down; remark: listed apart in the source
[5] = molecular target: HBH-ΔF508-CFTR-3HA (BHK cells) (UniProt P13569); assay: pull-down; remark: listed apart in the source

“FLAG-UBQLN2 (293MSR cells) (from UniProt Q9UHD9 1-624)” was tested. Which binding [1] did it give?
The binding was “binds”.

With “FLAG-UBQLN2 (BHK cells) (from UniProt Q9UHD9 1-624)” as the molecule, how does the binding [2] read?
The binding was “binds”.

How did the binding [3] turn out when “endogenous UBQLN2 (from UniProt Q9UHD9 1-624)” was run?
Its binding is “binds”.

What about the binding [4] of the same molecule?
Its binding is “binds weakly”.

B1: Myc-HERC3 (enzyme, UniProt Q15034 1-1050)
chain: MLCWGYWSLGQPGISTNLQGIVAEPQVCGFISDRSVKEVACGGNHSVFLLEDGEVYTCGLNTKGQLGHEREGNKPEQIGALADQHIIHVACGESHSLALSDRGQLFSWGAGSDGQLGLMTTEDSVAVPRLIQKLNQQTILQVSCGNWHCLALAADGQFFTWGKNSHGQLGLGKEFPSQASPQRVRSLEGIPLAQVAAGGAHSFALSLSGAVFGWGMNNAGQLGLSDEKDRESPCHVKLLRTQKVVYISCGEEHTAVLTKSGGVFTFGAGSCGQLGHDSMNDEVNPRRVLELMGSEVTQIACGRQHTLAFVPSSGLIYAFGCGARGQLGTGHTCNVKCPSPVKGYWAAHSGQLSARADRFKYHIVKQIFSGGDQTFVLCSKYENYSPAVDFRTMNQAHYTSLINDETIAVWRQKLSEHNNANTINGVVQILSSAACWNGSFLEKKIDEHFKTSPKIPGIDLNSTRVLFEKLMNSQHSMILEQILNSFESCLIPQLSSSPPDVEAMRIYLILPEFPLLQDSKYYITLTIPLAMAILRLDTNPSKVLDNWWSQVCPKYFMKLVNLYKGAVLYLLRGRKTFLIPVLFNNYITAALKLLEKLYKVNLKVKHVEYDTFYIPEISNLVDIQEDYLMWFLHQAGMKARPSIIQDTVTLCSYPFIFDAQAKTKMLQTDAELQMQVAVNGANLQNVFMLLTLEPLLARSPFLVLHVRRNNLVGDALRELSIHSDIDLKKPLKVIFDGEEAVDAGGVTKEFFLLLLKELLNPIYGMFTYYQDSNLLWFSDTCFVEHNWFHLIGITCGLAIYNSTVVDLHFPLALYKKLLNVKPGLEDLKELSPTEGRSLQELLDYPGEDVEETFCLNFTICRESYGVIEQKKLIPGGDNVTVCKDNRQEFVDAYVNYVFQISVHEWYTAFSSGFLKVCGGKVLELFQPSELRAMMVGNSNYNWEELEETAIYKGDYSATHPTVKLFWETFHEFPLEKKKKFLLFLTGSDRIPIYGMASLQIVIQSTASGEEYLPVAHTCYNLLDLPKYSSKEILSARLTQALDNYEGFSLA
Which binding [5] does the source give for B1 here?
The binding was “binds”.
